Results are given in words; binding and its absence hold for the method and conditions named. Some results given as binding are weak or reduced against the parent protein; the word gives no strength.
Biological target: T1, human interleukin 13 receptor alpha 2 (IL-13Rα2), biotinylated (human) (UniProt Q14627)
T1 sequence (biotinylated (site not stated), looked up): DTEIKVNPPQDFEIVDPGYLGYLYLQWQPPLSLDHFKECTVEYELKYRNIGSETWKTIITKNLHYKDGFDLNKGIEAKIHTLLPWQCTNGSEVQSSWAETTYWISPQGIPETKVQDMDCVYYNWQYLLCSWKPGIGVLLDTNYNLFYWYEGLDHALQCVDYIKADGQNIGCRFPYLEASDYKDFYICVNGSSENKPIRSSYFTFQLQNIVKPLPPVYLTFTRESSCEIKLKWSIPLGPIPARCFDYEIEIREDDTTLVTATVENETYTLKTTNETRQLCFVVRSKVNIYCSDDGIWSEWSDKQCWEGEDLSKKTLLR
Test: told in words; SPR on captured biotinylated receptor (FIG. 2)

binding: binds
B1: IL-13 variant C11 (IL-13Rα2-selective IL-13 superkine; L10H, R86T, D87G, T88R, R108K) (ligand)
chain: PGPVPPSTAHRELIEELVNITQNQKAPLCNGSMVWSINLTAGMYCAALESLINVSGCSAIEKTQRMLSGFCPHKVSAGQFSSLHVTGRKIEVAQFVKDLLLHLKKLFKEGQFNHHHHHH
notes: the first is used here; Made in insect Hi5 cells; also called polypeptide C11
